Part of at least one peptide drawing is inferred or uncertain, most often the ends. Residues, ends and D or L forms follow the SMILES beside them.
Experiments:
[1] = tested on: laser-induced CNV (wAMD mouse model); experiment: Laser-induced CNV efficacy in wAMD mouse model: FFA and FITC-dextran flat-mount staining (Example 4); assay type: in vivo, C57BL/6J mice; settings: for CNV area (FITC-dextran flat-mount staining): eye drops 5 times a day for 7 days, day 7; for CNV leakage (FFA examination): eye drops 5 times a day, FFA on day 3
[2] = tested on: choroidal neovascularization; settings: rats, intravitreal injection; cited from earlier work
[3] = tested on: laser-induced CNV (wAMD mouse model); experiment: Laser-induced CNV efficacy at equimolar concentration in wAMD mouse model: FFA and FITC-dextran flat-mount staining (Example 6); assay type: in vivo, C57BL/6J mice; settings: for CNV area (FITC-dextran flat-mount staining): day 7; for CNV leakage (FFA examination): FFA on day 3
[4] = intravitreal injection 8.76 mg/mL vs aflibercept 10 mg/mL intravitreal
[5] = intravitreal injection 8.76 mg/mL, 5 μL

C[C@H](NC(=O)CNC(=O)[C@@H](N)CCCNC(=N)N)C(=O)N[C@@H](CC(=O)O)C(=O)N[C@@H](CCCNC(=N)N)C(=O)N[C@@H](C)C(=O)NCC(=O)NCC(=O)NCC(=O)NCC(=O)N[C@@H](CCCNC(=N)N)C(=O)NCC(=O)N[C@@H](CC(=O)O)C(=O)O [HM-1, Arg-Gly-Ala-Asp-Arg-Ala-Gly-Gly-Gly-Gly-Arg-Gly-Asp] (H-RGADRAGGGGRGD-OH; N-terminus and C-terminus assumed)
CNV area (FITC-dextran flat-mount staining) ([1]; high dose 80 mg/mL): can partially reduce the CNV area
CNV leakage (FFA examination) ([1]; high dose 80 mg/mL): cannot significantly improve laser-induced CNV leakage
CNV area (FITC-dextran flat-mount staining) ([1]; low dose 20 mg/mL): cannot reduce the laser-induced CNV area
CNV leakage (FFA examination) ([1]; low dose 20 mg/mL): cannot significantly improve laser-induced CNV leakage
treatment of choroidal neovascularization [2]: can treat choroidal neovascularization in rats
CNV area (FITC-dextran flat-mount staining) ([3]; eye dropping 5 times a day for 7 days, equimolar (HM-1 8.76 mg/mL, AJ007 20 mg/mL)): cannot reduce the laser-induced CNV area
CNV leakage (FFA examination) ([3]; eye dropping 5 times a day, equimolar (HM-1 8.76 mg/mL, AJ007 20 mg/mL)): cannot significantly improve laser-induced CNV leakage
CNV area efficacy (flat-mount staining) compared with intravitreal injection of aflibercept [3, 4]: slightly better than
CNV leakage efficacy (FFA) compared with intravitreal injection of aflibercept [3, 4]: on par with
CNV leakage (FFA examination) [3, 5]: can significantly improve CNV leakage
CNV area (FITC-dextran flat-mount staining) [3, 5]: can greatly reduce the CNV area

Source: US20260226108A1, “FUSION POLYPEPTIDE AJ007 AND USE THEREOF” (NANJING ANJI BIOTECHNOLOGY CO, LTD., priority 2023, published 2026)
